Reference: publication PMC8615163
These are yes or no findings as the source states them, for the method shown. In cells and extracts the contact can be indirect. Some binding calls cover weakened binding; strength is not graded here.

Legend:
[1] = molecular target: T1, TGF-βRI (human (endogenous in hTERT-HSC)), P36897; experiment: proximity ligation; human HSCs, serum-starved 24 h, with or without 10 ng/mL TGF-β1 and/or 500 ng/mL NP-011 for 30 min; Duolink In Situ Red Starter Kit; conditions: remark: other sources report otherwise
T1 chain: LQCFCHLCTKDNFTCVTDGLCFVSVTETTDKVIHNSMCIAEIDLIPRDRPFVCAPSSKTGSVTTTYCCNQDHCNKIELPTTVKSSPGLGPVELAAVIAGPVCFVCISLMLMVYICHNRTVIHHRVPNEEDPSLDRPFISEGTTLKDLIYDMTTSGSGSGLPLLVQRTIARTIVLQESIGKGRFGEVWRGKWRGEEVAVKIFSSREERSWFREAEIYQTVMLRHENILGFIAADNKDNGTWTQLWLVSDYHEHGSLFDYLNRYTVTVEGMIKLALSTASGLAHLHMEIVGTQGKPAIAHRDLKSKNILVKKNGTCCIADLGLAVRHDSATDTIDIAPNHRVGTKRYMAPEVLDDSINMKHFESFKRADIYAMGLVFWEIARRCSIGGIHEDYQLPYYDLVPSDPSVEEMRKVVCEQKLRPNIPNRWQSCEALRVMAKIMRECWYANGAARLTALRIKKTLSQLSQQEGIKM

[2] = molecular target: T1, TGF-βRI (human (endogenous in …)); experiment: co-IP; 400 μg protein of HSC lysate (RIPA buffer), 1 μg TGFβRI antibody, protein A/G sepharose beads, 4 °C, 12 h; cells with TGF-β1 (10 ng/mL) and/or NP-011 (500 ng/mL); blot for integrin β3/β5; conditions: remark: other sources report otherwise

binding [1]: binds
binding [2]: binds
B1: integrin β3 (endogenous in human HSCs), P05106 27-788 (receptor)
chain: GPNICTTRGVSSCQQCLAVSPMCAWCSDEALPLGSPRCDLKENLLKDNCAPESIEFPVSEARVLEDRPLSDKGSGDSSQVTQVSPQRIALRLRPDDSKNFSIQVRQVEDYPVDIYYLMDLSYSMKDDLWSIQNLGTKLATQMRKLTSNLRIGFGAFVDKPVSPYMYISPPEALENPCYDMKTTCLPMFGYKHVLTLTDQVTRFNEEVKKQSVSRNRDAPEGGFDAIMQATVCDEKIGWRNDASHLLVFTTDAKTHIALDGRLAGIVQPNDGQCHVGSDNHYSASTTMDYPSLGLMTEKLSQKNINLIFAVTENVVNLYQNYSELIPGTTVGVLSMDSSNVLQLIVDAYGKIRSKVELEVRDLPEELSLSFNATCLNNEVIPGLKSCMGLKIGDTVSFSIEAKVRGCPQEKEKSFTIKPVGFKDSLIVQVTFDCDCACQAQAEPNSHRCNNGNGTFECGVCRCGPGWLGSQCECSEEDYRPSQQDECSPREGQPVCSQRGECLCGQCVCHSSDFGKITGKYCECDDFSCVRYKGEMCSGHGQCSCGDCLCDSDWTGYYCNCTTRTDTCMSSNGLLCSGRGKCECGSCVCIQPGSYGDTCEKCPTCPDACTFKKECVECKKFDRGALHDENTCNRYCRDEIESVKELKDTGKDAVNCTYKNEDDCVVRFQYYEDSSGKSILYVVEEPECPKGPDILVVLLSVMGAILLIGLAALLIWKLLITIHDRKEFAKFEEERARAKWDTANNPLYKEATSTFTNITYRGT
